Drugs:
tamatinib (2 µM): COc1cc(Nc2ncc(F)c(Nc3ccc4c(n3)NC(=O)C(C)(C)O4)n2)cc(OC)c1OC
FK866 (0.05 µM): O=C(/C=C/c1cccnc1)NCCCCC1CCN(C(=O)c2ccccc2)CC1
KU-55933 (5 µM): O=c1cc(-c2cccc3c2Sc2ccccc2S3)oc(N2CCOCC2)c1
tipifarnib (0.05 µM): Cn1cncc1[C@@](N)(c1ccc(Cl)cc1)c1ccc2c(c1)c(-c1cccc(Cl)c1)cc(=O)n2C
CP-690550 (5 µM): C[C@@H]1CCN(C(=O)CC#N)C[C@@H]1N(C)c1ncnc2[nH]ccc12
pazopanib (2 µM): Cc1ccc(Nc2nccc(N(C)c3ccc4c(C)n(C)nc4c3)n2)cc1S(N)(=O)=O
NVP-TAE684 (0.4 µM): COc1cc(N2CCC(N3CCN(C)CC3)CC2)ccc1Nc1ncc(Cl)c(Nc2ccccc2S(=O)(=O)C(C)C)n1
dovitinib (0.5 µM): CN1CCN(c2ccc3nc(-c4c(N)c5c(F)cccc5[nH]c4=O)[nH]c3c2)CC1
XAV939 (10 µM): Oc1nc(-c2ccc(C(F)(F)F)cc2)nc2c1CSCC2
PD173074 (0.5 µM): CCN(CC)CCCCNc1ncc2cc(-c3cc(OC)cc(OC)c3)c(NC(=O)NC(C)(C)C)nc2n1
selumetinib (0.075 µM): Cn1cnc2c(F)c(Nc3ccc(Br)cc3Cl)c(C(=O)NOCCO)cc21
midostaurin (0.4 µM): CO[C@@H]1[C@H](N(C)C(=O)c2ccccc2)C[C@H]2O[C@]1(C)n1c3ccccc3c3c4c(c5c6ccccc6n2c5c31)C(=O)NC4
SNS-314 (0.004 µM): O=C(Nc1cccc(Cl)c1)Nc1ncc(CCNc2ncnc3ccsc23)s1
JZL184 (5 µM): O=C(Oc1ccc([N+](=O)[O-])cc1)N1CCC(C(O)(c2ccc3c(c2)OCO3)c2ccc3c(c2)OCO3)CC1
GW9662 (10 µM): O=C(Nc1ccccc1)c1cc([N+](=O)[O-])ccc1Cl
crizotinib (1 µM): C[C@@H](Oc1cc(-c2cnn(C3CCNCC3)c2)cnc1N)c1c(Cl)ccc(F)c1Cl
MK-1775 (0.1 µM): C=CCn1c(=O)c2cnc(Nc3ccc(N4CCN(C)CC4)cc3)nc2n1-c1cccc(C(C)(C)O)n1
embelin (6 µM): CCCCCCCCCCCC1=C(O)C(=O)C=C(O)C1=O
indole-3-carbinol (4 µM): OCc1c[nH]c2ccccc12
vincristine (0.0005 µM): CC[C@]1(O)C[C@H]2CN(CCc3c([nH]c4ccccc34)[C@@](C(=O)OC)(c3cc4c(cc3OC)N(C=O)[C@H]3[C@@](O)(C(=O)OC)[C@H](OC(C)=O)[C@]5(CC)C=CCN6CC[C@]43[C@@H]65)C2)C1
ABT-263 (2 µM): CC1(C)CCC(c2ccc(Cl)cc2)=C(CN2CCN(c3ccc(C(=O)NS(=O)(=O)c4ccc(N[C@H](CCN5CCOCC5)CSc5ccccc5)c(S(=O)(=O)C(F)(F)F)c4)cc3)CC2)C1
GSK0660 (5 µM): COC(=O)c1sccc1S(=O)(=O)Nc1ccc(Nc2ccccc2)cc1OC
bexarotene (10 µM): C=C(c1ccc(C(=O)O)cc1)c1cc2c(cc1C)C(C)(C)CCC2(C)C

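Human melanoma cell lines in 1,536-well plates were treated with a single drug for 72 h, then fixed, stained and imaged. Each value is the cleaved-PARP-positive fraction of nuclei relative to DMSO-treated wells, in %, so that 100 equals the control and higher values mean more apoptosis. Concentrations were fixed for each drug; these are the higher of two levels. These are primary screening values without error estimates. The marker varies much from line to line, for technical or biological reasons.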
An unselected part of the screen is shown.
An entry leaves out what has no value listed here.
A dash means that no value is listed here.

Drug | SK-MEL-2 | MZ2-MEL | MEL-HO | WM1745
CP-690550 | 112 | 65.7 | 66.0 | 65.1
GSK0660 | 57.3 | 88.9 | 241 | -
XAV939 | 115 | 88.3 | 90.3 | -
embelin | 84.4 | 143 | 93.9 | -
tipifarnib | 156 | 181 | 152 | 78.5
SNS-314 | 171 | 237 | 152 | 109
bexarotene | 109 | 562 | 97.5 | 86.8
midostaurin | 167 | 435 | 201 | 177
FK866 | 2740 | 1090 | 293 | 79.0
crizotinib | 199 | 55.4 | 83.5 | 181
dovitinib | 166 | 268 | 182 | 152
GW9662 | 76.2 | 217 | 137 | -
PD173074 | 55.7 | 79.8 | 79.8 | -
MK-1775 | 82.0 | 59.9 | 74.9 | 143
pazopanib | 86.5 | 132 | 133 | 111
selumetinib | 97.1 | 300 | 91.1 | 223
vincristine | 176 | 145 | 51.8 | 89.8
KU-55933 | 35.5 | 86.8 | 61.4 | -
NVP-TAE684 | 96.1 | 88.0 | 76.7 | -
ABT-263 | 129 | 26.4 | 405 | 1460
tamatinib | 120 | 113 | 83.8 | 180
indole-3-carbinol | 157 | 29.8 | 61.4 | 80.2
JZL184 | 108 | 105 | 131 | -

Some entries from above, unchanged:

{"drug": "GW9662", "SK-MEL-2": 76.2, "MZ2-MEL": 217, "MEL-HO": 137}
{"drug": "GSK0660", "SK-MEL-2": 57.3, "MZ2-MEL": 88.9, "MEL-HO": 241}
{"drug": "selumetinib", "SK-MEL-2": 97.1, "MZ2-MEL": 300, "MEL-HO": 91.1, "WM1745": 223}

Values as published with doi:10.1371/journal.pone.0140310, rounded.